From the supplement of paper PMC4604168 (melanoma cell lines)
The other results are listed elsewhere or left out. Repeats are few or missing, and single values can be far off.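 Imaging used 1,536-well plates; nuclei positive for cleaved PARP by antibody were divided by total DNA-stained nuclei to yield the apoptosis fraction. Doses for screening kept most cells viable, and cell lines differ markedly in resting and induced cleaved-PARP levels.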

Key:
Test in all cases: cleaved PARP positive nuclei fraction relative to DMSO control; melanoma cells; higher = more apoptosis
Conditions in all cases: library dose: low library concentration; 72 h
501Mel = test system: 501Mel
A101D = test system: A101D
A2058 = test system: A2058
A375 = test system: A375
C32 = test system: C32
CBRC008 = test system: CBRC008 (line from a melanoma biopsy)
CBRC013 = test system: CBRC013 (line from a melanoma biopsy)
CBRC014 = test system: CBRC014 (line from a melanoma biopsy)
CBRC016 = test system: CBRC016 (line from a melanoma biopsy)
CBRC017 = test system: CBRC017 (line from a melanoma biopsy)
COLO792 = test system: COLO792
COLO800 = test system: COLO800
COLO829 = test system: COLO829
G361 = test system: G361
IPC-298 = test system: IPC-298
IST-MEL1 = test system: IST-MEL1
LB2518-MEL = test system: LB2518-MEL
LOXIMVI = test system: LOXIMVI
MEL-HO = test system: MEL-HO

Row | Compound | cleaved PARP positive nuclei fraction (501Mel) | cleaved PARP positive nuclei fraction (A101D) | cleaved PARP positive nuclei fraction (A2058) | cleaved PARP positive nuclei fraction (A375) | cleaved PARP positive nuclei fraction (C32) | cleaved PARP positive nuclei fraction (CBRC008) | cleaved PARP positive nuclei fraction (CBRC013) | cleaved PARP positive nuclei fraction (CBRC014) | cleaved PARP positive nuclei fraction (CBRC016) | cleaved PARP positive nuclei fraction (CBRC017) | cleaved PARP positive nuclei fraction (COLO792) | cleaved PARP positive nuclei fraction (COLO800) | cleaved PARP positive nuclei fraction (COLO829) | cleaved PARP positive nuclei fraction (G361) | cleaved PARP positive nuclei fraction (IPC-298) | cleaved PARP positive nuclei fraction (IST-MEL1) | cleaved PARP positive nuclei fraction (LB2518-MEL) | cleaved PARP positive nuclei fraction (LOXIMVI) | cleaved PARP positive nuclei fraction (MEL-HO)
1 | O=C(O)[C@@H]1[O][Sb](=[O])([O][Sb]2(=[O])[O][C@H]([C@H](O)CO)[C@H](O)[C@H](C(=O)O)[O]2)[O][C@H]([C@H](O)CO)[C@@H]1O (stereo partly drawn) [stibogluconate] + OCCn1cc(-c2cnc3nnn(Cc4ccc5ncccc5c4)c3n2)cn1 [PF04217903] (first compound 2 µM, partner dose 1 µM) | 81.8% | 95.9% | 19.4% | 79.4% | 141% | 148% | 104% | 73.5% | 98% | 84.3% | 50.4% | 108% | 160% | 107% | 139% | 205% | 59.3% | 135% | 35.4%
2 | CS(=O)(=O)CCNCc1ccc(-c2ccc3ncnc(Nc4ccc(OCc5cccc(F)c5)c(Cl)c4)c3c2)o1 [lapatinib] + C[C@@H]1CCN(C(=O)CC#N)C[C@@H]1N(C)c1ncnc2[nH]ccc12 [CP690550] (first compound 0.8 µM, partner dose 1 µM) | 96.1% | 20.8% | 83.7% | 236% | 89.1% | 61.5% | 135% | 171% | 73.8% | 208% | 127% | 138% | 90.8% | 66.9% | 97.4% | 141% | 43.6% | 139% | 46.2%
3 | Cn1c(=O)n(-c2ccc(C(C)(C)C#N)cc2)c2c3cc(-c4cnc5ccccc5c4)ccc3ncc21 + COc1cc(Nc2ncc(F)c(Nc3ccc4c(n3)NC(=O)C(C)(C)O4)n2)cc(OC)c1OC [Tamatinib] (first compound 0.004 µM, partner dose 0.4 µM) | 75.2% | 75.2% | 34.5% | 75.5% | 61.6% | 305% | 99.4% | 187% | 74.2% | 221% | 282% | 25% | 113% | 155% | 62.2% | 121% | 116% | 48.5% | 318%
4 | O=C(O)[C@@H]1[O][Sb](=[O])([O][Sb]2(=[O])[O][C@H]([C@H](O)CO)[C@H](O)[C@H](C(=O)O)[O]2)[O][C@H]([C@H](O)CO)[C@@H]1O (stereo partly drawn) [stibogluconate] + COc1cc(Nc2ncc(F)c(Nc3ccc4c(n3)NC(=O)C(C)(C)O4)n2)cc(OC)c1OC [Tamatinib] (first compound 2 µM, partner dose 0.4 µM) | 127% | 237% | 153% | 145% | 154% | 150% | 157% | 71.9% | 47.9% | 98.8% | 100% | 80% | 160% | 86.9% | 108% | 58.7% | 132% | 197% | 274%
5 | Nc1ncn([C@H]2C[C@H](O)[C@@H](CO)O2)c(=O)n1 [decitabine] + NCC(=O)Nc1ccc(-n2nc(C(F)(F)F)cc2-c2ccc3c(ccc4ccccc43)c2)cc1 [OSU03012] (first compound 0.1 µM, partner dose 1 µM) | 169% | 165% | 108% | 898% | 9.86% | 151% | 54.2% | 112% | 99% | 89.1% | 155% | 92.6% | 35.9% | 95.9% | 136% | 40.6% | 198% | 41.9% | 41.5%
6 | CS(=O)(=O)CCNCc1ccc(-c2ccc3ncnc(Nc4ccc(OCc5cccc(F)c5)c(Cl)c4)c3c2)o1 [lapatinib] + CC(C)(C)c1cnc(CSc2cnc(NC(=O)C3CCNCC3)s2)o1 [SNS-032] (first compound 0.8 µM, partner dose 0.01 µM) | 167% | 47.8% | 36.5% | 54.2% | 68.5% | 449% | 130% | 91.9% | 20.4% | 135% | 189% | 73.8% | 92.3% | 103% | 43.2% | 96.9% | 43.7% | 108% | 136%
7 | Nc1ncn([C@H]2C[C@H](O)[C@@H](CO)O2)c(=O)n1 [decitabine] + CN(NC(=O)CC(=O)NN(C)C(=S)c1ccccc1)C(=S)c1ccccc1 [STA4783] (first compound 0.1 µM, partner dose 0.006 µM) | 106% | 89% | 40.8% | 79.4% | 40.2% | 227% | 116% | 111% | 153% | 112% | 165% | 87.4% | 200% | 115% | 145% | 168% | 104% | 333% | 164%
8 | CO[C@H]1C[C@@H]2CC[C@@H](C)[C@@](O)(O2)C(=O)C(=O)N2CCCC[C@H]2C(=O)O[C@H]([C@H](C)C[C@@H]2CC[C@@H](OCCO)[C@H](OC)C2)CC(=O)[C@H](C)/C=C(\C)[C@@H](O)[C@@H](OC)C(=O)[C@H](C)C[C@H](C)/C=C/C=C/C=C/1C [everolimus] + CC(C)(C)c1cnc(CSc2cnc(NC(=O)C3CCNCC3)s2)o1 [SNS-032] (first compound 0.02 µM, partner dose 0.01 µM) | 144% | 102% | 144% | 369% | 50.3% | 174% | 56.7% | 92.5% | 162% | 126% | 118% | 85% | 191% | 60.2% | 117% | 112% | 59.2% | 82.4% | 51.9%
9 | Cn1c(=O)n(-c2ccc(C(C)(C)C#N)cc2)c2c3cc(-c4cnc5ccccc5c4)ccc3ncc21 + Cn1cncc1[C@@](N)(c1ccc(Cl)cc1)c1ccc2c(c1)c(-c1cccc(Cl)c1)cc(=O)n2C [tipifarnib] (first compound 0.004 µM, partner dose 0.01 µM) | 203% | 104% | 198% | 251% | 131% | 133% | 102% | 98% | 190% | 120% | 95.2% | 173% | 26.7% | 116% | 49.3% | 105% | 110% | 145% | 119%
10 | CNC(=O)c1cc(Oc2ccc(NC(=O)Nc3ccc(Cl)c(C(F)(F)F)c3)cc2)ccn1 [sorafenib] + COc1cc2c(Oc3ccc4[nH]c(C)cc4c3F)ncnc2cc1OCCCN1CCCC1 [cediranib] (first compound 0.4 µM, partner dose 0.4 µM) | 179% | 60.5% | 108% | 11% | 206% | 104% | 110% | 90.1% | 103% | 104% | 25.1% | 96% | 93.8% | 116% | 99.1% | 248% | 85.9% | 44.8% | 117%
11 | O=C(O)c1ccc2c(c1)nc(Nc1cccc(Cl)c1)c1ccncc12 + O=C(CCCCCCC(=O)Nc1ccccc1)NO [vorinostat] (first compound 0.4 µM, partner dose 0.08 µM) | 152% | 69.5% | 38.3% | 147% | 64.6% | 151% | 97.7% | 144% | 202% | 183% | 91.1% | 77% | 91.5% | 67.2% | 180% | 48.4% | 91.1% | 124% | 91.4%
12 | O=C(O)c1ccc2c(c1)nc(Nc1cccc(Cl)c1)c1ccncc12 + COc1cc2c(Oc3ccc4[nH]c(C)cc4c3F)ncnc2cc1OCCCN1CCCC1 [cediranib] (first compound 0.4 µM, partner dose 0.4 µM) | 270% | 108% | 128% | 184% | 87.8% | 177% | 121% | 181% | 103% | 128% | 175% | 68.2% | 93.2% | 121% | 63.6% | 84% | 64.1% | 132% | 155%
13 | C=C(c1ccc(C(=O)O)cc1)c1cc2c(cc1C)C(C)(C)CCC2(C)C [Bexarotene] + O=C(Nc1cccc(Cl)c1)Nc1ncc(CCNc2ncnc3ccsc23)s1 [SNS314] (first compound 2 µM, partner dose 0.0008 µM) | 99.1% | 159% | 71.9% | 103% | 72.1% | 184% | 116% | 110% | 64% | 114% | 90.2% | 69.3% | 163% | 58.2% | 48.4% | 116% | 53.4% | 68% | 33.5%
14 | CO[C@H]1C[C@@H]2CC[C@@H](C)[C@@](O)(O2)C(=O)C(=O)N2CCCC[C@H]2C(=O)O[C@H]([C@H](C)C[C@@H]2CC[C@@H](OCCO)[C@H](OC)C2)CC(=O)[C@H](C)/C=C(\C)[C@@H](O)[C@@H](OC)C(=O)[C@H](C)C[C@H](C)/C=C/C=C/C=C/1C [everolimus] + Cc1cc(N2CCOCC2)cc2[nH]c(-c3c(NC[C@@H](O)c4cccc(Cl)c4)cc[nH]c3=O)nc12 [BMS536924] (first compound 0.02 µM, partner dose 0.2 µM) | 357% | 98.6% | 61.7% | 521% | 322% | 222% | 150% | 123% | 113% | 163% | 358% | 109% | 80.3% | 186% | 132% | 126% | 76.6% | 66.7% | 429%
15 | CS(=O)(=O)CCNCc1ccc(-c2ccc3ncnc(Nc4ccc(OCc5cccc(F)c5)c(Cl)c4)c3c2)o1 [lapatinib] + O=C(O)c1ccc(-c2c[nH]c3ncc(-c4ccccc4)cc23)cc1C1CCCC1 [GSK650394] (first compound 0.8 µM, partner dose 0.16 µM) | 77.2% | 49.3% | 104% | 158% | 85.7% | 89.5% | 140% | 90.9% | 82.3% | 110% | 61.7% | 170% | 86.4% | 52.5% | 662% | 39.6% | 112% | 70.7% | 194%
16 | Nc1nc(F)nc2c1ncn2[C@@H]1O[C@H](CO)[C@@H](O)[C@@H]1O [fludarabine] + O=C(O)c1ccc(-c2c[nH]c3ncc(-c4ccccc4)cc23)cc1C1CCCC1 [GSK650394] (first compound 0.2 µM, partner dose 0.16 µM) | 1740% | 45.4% | 89.2% | 9680% | 43.7% | 240% | 310% | 91% | 338% | 97.8% | 33% | 122% | 73.4% | 106% | 49.5% | 122% | 82.2% | 29.3% | 76.5%
17 | CN1CCN(c2ccc3nc(-c4c(N)c5c(F)cccc5[nH]c4=O)[nH]c3c2)CC1 [Dovitinib] + COc1cc2c(Oc3ccc4[nH]c(C)cc4c3F)ncnc2cc1OCCCN1CCCC1 [cediranib] (first compound 0.1 µM, partner dose 0.4 µM) | 82.2% | 46.9% | 91% | 143% | 102% | 248% | 143% | 77.7% | 59.4% | 135% | 100% | 117% | 44% | 86.5% | 97.2% | 103% | 106% | 104% | 147%
